Data as given in US11090319B2, “Therapeutic uses of pharmaceutical compositions comprising cyclic boronic acid ester derivatives” (Melinta Subsidiary Corp., priority 2010, dated 2021).
At least one read-out could not be matched to a standard name with certainty.

Tests used:
[1] = system: EC1007 KPC-3; assay type: cell-based, Escherichia coli
[2] = system: EC1010 CMY-6; experiment: Tigemonam potentiation assay (MPC@4), class C and D; assay type: cell-based, Escherichia coli
Description: (§1) Selected β-lactamase inhibitors were also tested for their ability to potentiate the monobactam tigemonam.

[3] = system: PAM2035; experiment: as above; assay type: cell-based, Pseudomonas aeruginosa
Description: as §1

[4] = system: KP1007 OXA-10; assay type: cell-based, Klebsiella pneumoniae
Description: as §1

[5] = system: KPX1001 OXA-2; assay type: cell-based
Description: as §1

[6] = system: strains expressing class A ESBLs; assay type: cell-based
[7] = system: strains expressing class C and D enzymes; assay type: cell-based

Compound | AZT MPC4 KPC-3 EC1007 [1] | MPC4 CMY-6, EC1010 [2] | MPC4 PAM2035 [3] | MPC4 OXA-10, KP1007 [4] | MPC4 OXA-2, KPX1001 [5] | AZT MPC4 CTX-M-14 KP1005 [6] | AZT MPC4 CTX-M-15 KP1009 [6] | AZT MPC4 SHV-5 ec308 [6] | AZT MPC4 SHV-12 KP1010 [6] | AZT MPC4 SHV-18 KP1012 [6] | AZT MPC4 TEM-10 EC1009 [6] | AZT MPC4 TEM-10 ec302 [6] | AZT MPC4 TEM-26 ec304 [6] | AZT MPC@4 CMY-6 EC1010 [7] | AZT MPC@4 ECL1002 [7] | AZT MPC@4 OXA-2, KPX1001 [7] | AZT MPC@4 OXA-10, qnrB4 KP1007 [7] | AZT MPC@4 PAM2035 [7]
O=C(O)C[C@@H]1CC[C@H](NC(=O)c2ccccc2)B(O)O1 [Compound 37, 2-((3R,6S)-3-benzamido-2-hydroxy-1,2-oxaborinan-6-yl)acetic acid] | X (key: X: MPC@4 of less than 5 μg/mL; Y: MPC@4 of 5 μg/mL to 20 μg/mL; Z: MPC@4 of greater than 20 μg/mL) | X (key: X: MPC@4 of less than 2 μg/mL; Y: MPC@4 of 2 μg/mL to 10 μg/mL; Z: MPC@4 of greater than 10 μg/mL) | X (key: X: MPC@4 of less than 2 μg/mL; Y: MPC@4 of 2 μg/mL to 10 μg/mL; Z: MPC@4 of greater than 10 μg/mL) | Z (key: X: MPC@4 of less than 2 μg/mL; Y: MPC@4 of 2 μg/mL to 10 μg/mL; Z: MPC@4 of greater than 10 μg/mL) | X (key: X: MPC@4 of less than 2 μg/mL; Y: MPC@4 of 2 μg/mL to 10 μg/mL; Z: MPC@4 of greater than 10 μg/mL) | Z (key: X: MPC@4 of less than 5 μg/mL; Y: MPC@4 of 5 μg/mL to 20 μg/mL; Z: MPC@4 of greater than 20 μg/mL) | Z (key: X: MPC@4 of less than 5 μg/mL; Y: MPC@4 of 5 μg/mL to 20 μg/mL; Z: MPC@4 of greater than 20 μg/mL) | Z (key: X: MPC@4 of less than 5 μg/mL; Y: MPC@4 of 5 μg/mL to 20 μg/mL; Z: MPC@4 of greater than 20 μg/mL) | Y (key: X: MPC@4 of less than 5 μg/mL; Y: MPC@4 of 5 μg/mL to 20 μg/mL; Z: MPC@4 of greater than 20 μg/mL) | X (key: X: MPC@4 of less than 5 μg/mL; Y: MPC@4 of 5 μg/mL to 20 μg/mL; Z: MPC@4 of greater than 20 μg/mL) | Y (key: X: MPC@4 of less than 5 μg/mL; Y: MPC@4 of 5 μg/mL to 20 μg/mL; Z: MPC@4 of greater than 20 μg/mL) | Z (key: X: MPC@4 of less than 5 μg/mL; Y: MPC@4 of 5 μg/mL to 20 μg/mL; Z: MPC@4 of greater than 20 μg/mL) | Y (key: X: MPC@4 of less than 5 μg/mL; Y: MPC@4 of 5 μg/mL to 20 μg/mL; Z: MPC@4 of greater than 20 μg/mL) | Z (key: X: MPC@4 of less than 5 μg/mL; Y: MPC@4 of 5 μg/mL to 20 μg/mL; Z: MPC@4 of greater than 20 μg/mL) | Z (key: X: MPC@4 of less than 5 μg/mL; Y: MPC@4 of 5 μg/mL to 20 μg/mL; Z: MPC@4 of greater than 20 μg/mL) | X (key: X: MPC@4 of less than 5 μg/mL; Y: MPC@4 of 5 μg/mL to 20 μg/mL; Z: MPC@4 of greater than 20 μg/mL) | Z (key: X: MPC@4 of less than 5 μg/mL; Y: MPC@4 of 5 μg/mL to 20 μg/mL; Z: MPC@4 of greater than 20 μg/mL) | Z (key: X: MPC@4 of less than 5 μg/mL; Y: MPC@4 of 5 μg/mL to 20 μg/mL; Z: MPC@4 of greater than 20 μg/mL)
NCCSCC(=O)N[C@H]1CC[C@@H](CC(=O)O)OB1O [Compound 48, 2-((3R,6S)-3-(2-(2-aminoethylthio)acetamido)-2-hydroxy-1,2-oxaborinan-6-yl)acetic acid] | X (key: X: MPC@4 of less than 5 μg/mL; Y: MPC@4 of 5 μg/mL to 20 μg/mL; Z: MPC@4 of greater than 20 μg/mL) | X (key: X: MPC@4 of less than 2 μg/mL; Y: MPC@4 of 2 μg/mL to 10 μg/mL; Z: MPC@4 of greater than 10 μg/mL) | Y (key: X: MPC@4 of less than 2 μg/mL; Y: MPC@4 of 2 μg/mL to 10 μg/mL; Z: MPC@4 of greater than 10 μg/mL) | Z (key: X: MPC@4 of less than 2 μg/mL; Y: MPC@4 of 2 μg/mL to 10 μg/mL; Z: MPC@4 of greater than 10 μg/mL) | X (key: X: MPC@4 of less than 2 μg/mL; Y: MPC@4 of 2 μg/mL to 10 μg/mL; Z: MPC@4 of greater than 10 μg/mL) | Z (key: X: MPC@4 of less than 5 μg/mL; Y: MPC@4 of 5 μg/mL to 20 μg/mL; Z: MPC@4 of greater than 20 μg/mL) | Z (key: X: MPC@4 of less than 5 μg/mL; Y: MPC@4 of 5 μg/mL to 20 μg/mL; Z: MPC@4 of greater than 20 μg/mL) | Z (key: X: MPC@4 of less than 5 μg/mL; Y: MPC@4 of 5 μg/mL to 20 μg/mL; Z: MPC@4 of greater than 20 μg/mL) | Z (key: X: MPC@4 of less than 5 μg/mL; Y: MPC@4 of 5 μg/mL to 20 μg/mL; Z: MPC@4 of greater than 20 μg/mL) | Z (key: X: MPC@4 of less than 5 μg/mL; Y: MPC@4 of 5 μg/mL to 20 μg/mL; Z: MPC@4 of greater than 20 μg/mL) | Z (key: X: MPC@4 of less than 5 μg/mL; Y: MPC@4 of 5 μg/mL to 20 μg/mL; Z: MPC@4 of greater than 20 μg/mL) | Z (key: X: MPC@4 of less than 5 μg/mL; Y: MPC@4 of 5 μg/mL to 20 μg/mL; Z: MPC@4 of greater than 20 μg/mL) | Z (key: X: MPC@4 of less than 5 μg/mL; Y: MPC@4 of 5 μg/mL to 20 μg/mL; Z: MPC@4 of greater than 20 μg/mL) | Z (key: X: MPC@4 of less than 5 μg/mL; Y: MPC@4 of 5 μg/mL to 20 μg/mL; Z: MPC@4 of greater than 20 μg/mL) | Z (key: X: MPC@4 of less than 5 μg/mL; Y: MPC@4 of 5 μg/mL to 20 μg/mL; Z: MPC@4 of greater than 20 μg/mL) | Z (key: X: MPC@4 of less than 5 μg/mL; Y: MPC@4 of 5 μg/mL to 20 μg/mL; Z: MPC@4 of greater than 20 μg/mL) | Z (key: X: MPC@4 of less than 5 μg/mL; Y: MPC@4 of 5 μg/mL to 20 μg/mL; Z: MPC@4 of greater than 20 μg/mL) | Z (key: X: MPC@4 of less than 5 μg/mL; Y: MPC@4 of 5 μg/mL to 20 μg/mL; Z: MPC@4 of greater than 20 μg/mL)
